Reference: PubChem BioAssay AID1487 (National Center for Advancing Translational Sciences (NCATS), 2009)
Hit rate of the full screen: of about 200,000 compounds, about 25 (0.01%) were called active. This list was built around the results that the source calls inconclusive (neither active nor inactive); the mix of calls is not that of the screen. Calls come from the whole dose curve; as a rule, active = well fitted inhibition curve with a large enough effect in the signal ratio, with a control signal flat (not every such curve was filed as active); inconclusive = small, poorly fitted or top-dose-only effect, or effect the other way, or a change in a side signal; inactive = flat fitted curve, though single readings scatter; the % refers to the signal ratio. Where the call is inconclusive, the potency comes from a doubtful curve fit.

assay: qHTS Assay for Modulators of Lamin A Splicing; settings: HeLa LMNA splicing GFP/RFP minigene ratio, 48 h; ratio change, negative = inhibition: at 46.1 µM (top of the series) unless noted
How it was run: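 Read-out is the ratio of GFP to DsRed2 object intensity, acquired by 488 nm laser-scanning cytometry on HeLa lamin A-EGFP minigene reporter cells. Compound incubation 48 hrs at 37 °C in Opti-MEM with 2% FBS; DMSO 0.5% final.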
% is set by controls: 0 for no effect and ±100 for the full control effect; potency is the fitted concentration of half-maximal effect.

Row | Compound | Potency | ratio change, negative = inhibition
1 | CCc1cc(/C(Cc2csc(C)n2)=N/O)c(O)cc1O | inconclusive: 6.31 µM [falling, full curve] | 
2 | C=CCNc1nc(S(=O)Cc2ccc(C)cc2)nc2c1CCCC2 (stereo not drawn) |  | inconclusive: -49.1% [at 46 µM]
3 | COCCNC(=S)N1CCN(c2cccc(C(F)(F)F)c2)CC1 |  | inconclusive: 30.5% [at 46 µM]
4 | O=C(NCc1ccccc1)c1ccc(NC(=O)c2nsc3ccccc23)cc1 |  | inconclusive: 5.13% [at 46 µM]
5 | CC(C)OCCCN1CN(S(=O)(=O)c2cccc(Cl)c2)c2nc3ccccc3nc21 |  | inactive: 4.78% [at 0.0737 µM]
6 | CN(C)c1ccc(CNC(=O)c2cc3cc(S(=O)(=O)N4CCCCC4)ccc3n2C)cc1 |  | inactive: -19.6% [at 46 µM]
7 | O=C(CN1C(=O)C2CCCCN2c2ccc(C(=O)N3CCCC3)cc21)NCc1cccc(Cl)c1 (stereo not drawn) |  | inconclusive: -0.265% [at 46 µM]
8 | CC(=O)[C@H]1CC[C@H]2[C@@H]3C[C@H](C)C4=CC(=O)CC[C@]4(C)[C@H]3[C@@H](O)C[C@]12C |  | inconclusive: 3.04%
9 | CCC(=O)Nc1nonc1-c1nc2ccccc2n1Cc1cccc2ccccc12 |  | inconclusive: -15.8%
10 | COCc1nnc(NC(=O)CCc2ccccc2)s1 |  | inactive: -9.52%
11 | CCCSc1nc2c(cnn2-c2ccc(C)c(C)c2)c(=O)[nH]1 |  | inactive: -0.83%
12 | CC(C)CC1c2[nH]c3ccccc3c2CCN1C(=O)CCC(=O)N(C)C (stereo not drawn) |  | inconclusive: 18.8% [at 46 µM]
13 | COc1ccc(NC(=O)C2CCN(S(=O)(=O)c3ccc4c(c3)CCCC(=O)N4)CC2)cc1Cl |  | inactive: -11.6% [at 46 µM]
14 | COc1ccc(Cn2nnnc2C(C(C)C)N2CCc3ccccc32)cc1 (stereo not drawn) |  | inconclusive: 15.7%
15 | N#Cc1c(NC(=O)Cn2cnc3ccccc3c2=O)oc(-c2ccccc2)c1-c1ccccc1 |  | inconclusive: 11.7%
16 | COc1ccccc1N1CCN(c2csc3ccc(Cl)cc3c2=O)CC1 |  | inconclusive: -29.5% [at 46 µM]
17 | N#C/C(=C(/O)COc1ccc(Cl)cc1)c1nc2ccccc2s1 |  | inconclusive: 33.6% [at 46 µM]
18 | CC(=O)Cc1nsc(NC(=O)C2Cc3ccccc3C(=O)O2)n1 (stereo not drawn) |  | inactive: 4.93%
19 | O=C(Nc1ccc(Br)cc1F)N1CCC(CN2CCCC2)CC1 |  | inactive: 22.7% [at 46 µM]
20 | COc1cc(NC(=O)CSc2nc3cc(C)ccc3cc2C)c(C(=O)O)cc1OC |  | inconclusive: -31.7%
21 | O=C1CCCc2c1[nH]c1ccc(CN3CCCCC3)cc21 |  | inconclusive: -36.9%
22 | NC(N)=N/N=C/c1ccc(Br)cc1 |  | inconclusive: -21% [at 46 µM]
23 | O=C(NNc1nc2ccccc2s1)c1ccc(F)cc1 | inconclusive: 35.5 µM [fluorescent, single point] | 
24 | C=CCOc1ccccc1/C=N/NC(=O)c1ccc(Cl)cc1Cl |  | inactive: 5.1%
25 | Cc1ccc(C2=Nc3ccccc3N(CC(=O)NCc3ccc(F)cc3)C(=O)C2)cc1C | inconclusive: 14.1 µM [cytotoxic, partial curve] | 
26 | Nc1nc2ccc(O)cc2s1 |  | inactive: -20.1%
27 | COc1cc(Nc2ncc3c(n2)CCN(Cc2cc(Br)cs2)C3)cc(OC)c1 |  | inconclusive: -11% [at 46 µM]

Looked up above.
Value of CC(C)CC1c2[nH]c3ccccc3c2CCN1C(=O)CCC(=O)N(C)C (stereo not drawn) under ratio change, negative = inhibition: inconclusive: 18.8% [at 46 µM]
Value of COCc1nnc(NC(=O)CCc2ccccc2)s1 under ratio change, negative = inhibition: inactive: -9.52%
Value of CC(=O)Cc1nsc(NC(=O)C2Cc3ccccc3C(=O)O2)n1 (stereo not drawn) under ratio change, negative = inhibition: inactive: 4.93%
Value of O=C1CCCc2c1[nH]c1ccc(CN3CCCCC3)cc21 under ratio change, negative = inhibition: inconclusive: -36.9%

Next part

Row | Compound | Potency | ratio change, negative = inhibition
28 | Cc1occc1C(=O)Nc1ccc(OCc2ccccc2)cc1 |  | inconclusive: -0.282% [at 46 µM]
29 | Cc1nc2ccccn2c(=O)c1NC(=O)c1ccc(C(F)(F)F)cc1 |  | inactive: -2.4% [at 46 µM]
30 | N#C/C(=C\C1=C(N2CCOCC2)C(=C\c2ccc(Cl)cc2)/CC1)C(=O)Nc1ccccc1F |  | inactive: -0.893%
31 | CCOc1ccc(OCCSc2nnnn2C2CCCCC2)cc1 | inconclusive: 35.5 µM [fluorescent, single point] | 
32 | Cc1cc(C)n2nc(C(=O)OCC(=O)N3CCC3)nc2n1 |  | inconclusive: -0.38% [at 46 µM]
33 | COc1ccc(-c2n[nH]c(C(F)(F)F)c2-c2cc3ccccc3o2)c(O)c1 |  | inconclusive: -29.7%
34 | Cn1c(-c2ccc3c(c2)OCO3)cc(=O)c2ccccc21 |  | inconclusive: 25.1% [at 46 µM]
35 | Cc1ccccc1CN1C(=O)c2ccccc2Sc2ccc(C(=O)NC(C)c3ccccc3)cc21 (stereo not drawn) |  | inactive: -14.5% [at 46 µM]
36 | COc1ccc(CCNC(=O)c2nc3ncccn3n2)cc1OC |  | inactive: 3.34%
37 | COc1ccc2c(-c3ccccc3)cc(=O)[nH]c2c1 |  | inconclusive: 0.737%
38 | CC(NCc1ccc2c(c1)OCO2)C(=O)NC1CCCCC1 (stereo not drawn) |  | inconclusive: 11.3% [at 46 µM]
39 | CN(c1ccc(C(=O)NCCSC(C)(C)C)cc1)S(C)(=O)=O |  | inactive: -8.56%
40 | CNC(=S)N1N=C(c2ccc(Br)cc2)CC1c1ccc(OC)cc1 (stereo not drawn) |  | inconclusive: -39%
41 | Cc1ccccc1C(=O)NNC1CC(=O)N(c2ccc3c(c2)OCCO3)C1=O (stereo not drawn) |  | inactive: -5.86%
42 | Cc1cc[n+](CC(=O)c2ccc(NC(=O)c3ccccc3)cc2)c2ccccc12 |  | inconclusive: -20.6% [at 46 µM]
43 | Cc1c(/C=N/NC(=O)c2cccnc2)c2ccccc2n1Cc1ccccc1 |  | inconclusive: -0.223% [at 9.22 µM]
44 | CCc1cc(C(=O)NNC(=S)Nc2cccc(C)c2)cs1 |  | inactive: -9.11%
45 | O=C(NN1C(=O)/C(=C/c2cccnc2)SC1=S)C(c1ccccc1)c1ccccc1 | inconclusive: 35.5 µM [cytotoxic, single point] | 
46 | O=C(CN1CC(=O)Nc2ccccc21)Nc1ccc(F)c(F)c1 |  | inactive: 9.83% [at 46 µM]
47 | CCCCC(CC)CNC(=O)Cn1c(=O)[nH]c2ccsc2c1=O (stereo not drawn) |  | inconclusive: 36.4% [at 46 µM]
48 | CCc1ccc2c(c1)C1(NN=C(c3cccc4ccccc34)S1)C(=O)N2 (stereo not drawn) |  | inconclusive: -34.3%
49 | CCn1c(CSc2ncccn2)nnc1SCC(=O)N1CCc2ccccc21 |  | inconclusive: 3.45%
50 | COc1ccc(CCNC(=O)CS(=O)(=O)c2cn(CC(=O)N3CCOCC3)c3ccccc23)cc1OC |  | inconclusive: 34.9% [at 9.22 µM]
51 | CC(=O)c1c(C)oc2ccc(N(C(C)=O)S(=O)(=O)c3ccc(Cl)c([N+](=O)[O-])c3)cc12 |  | inconclusive: 44%
52 | CCOc1ccc(C2C(C(=O)O)c3ccccc3C(=O)N2CCN2CCOCC2)cc1 (stereo not drawn) |  | inconclusive: 14.6%
53 | O=C(Oc1cccc(C(=S)N2CCOCC2)c1)c1cc([N+](=O)[O-])cc([N+](=O)[O-])c1 |  | inconclusive: -9.57% [at 46 µM]
